According to publication PMC4838304 (PLoS Computational Biology, 2016):

Assay: peptide made by a vendor
Conditions: whole synthesis, HPLC and mass spectrometry

Substance: TAMRA-NLS-α-CE
- final HPLC purity: >80%

Substance: TAMRA-NLS-α-CE woRK
- final HPLC purity: >80%

Substance: TAMRA-chimera
- final HPLC purity: >80%

Substance: TAMRA-chimera woRK
- final HPLC purity: >50%

Substance: TAMRA-α-NLS-C
- final HPLC purity: >95%

Substance: TAMRA-α-NLS-C woRK
- final HPLC purity: >95%
